Test in all cases: cryo-EM structure; SSU precursor particles (with 20S pre-rRNA) one-step affinity purified via Enp1-TAP from extract of control strain Y2226 after four hours in glucose medium; state Enp1TAP_A; bait rows: proteins found together in one particle, direct contact not told
The target in experiment [1] is T1, Enp1 in fusion with the tandem affinity purification tag (Enp1-TAP) (S. cerevisiae) (UniProt P38333).
T1 sequence: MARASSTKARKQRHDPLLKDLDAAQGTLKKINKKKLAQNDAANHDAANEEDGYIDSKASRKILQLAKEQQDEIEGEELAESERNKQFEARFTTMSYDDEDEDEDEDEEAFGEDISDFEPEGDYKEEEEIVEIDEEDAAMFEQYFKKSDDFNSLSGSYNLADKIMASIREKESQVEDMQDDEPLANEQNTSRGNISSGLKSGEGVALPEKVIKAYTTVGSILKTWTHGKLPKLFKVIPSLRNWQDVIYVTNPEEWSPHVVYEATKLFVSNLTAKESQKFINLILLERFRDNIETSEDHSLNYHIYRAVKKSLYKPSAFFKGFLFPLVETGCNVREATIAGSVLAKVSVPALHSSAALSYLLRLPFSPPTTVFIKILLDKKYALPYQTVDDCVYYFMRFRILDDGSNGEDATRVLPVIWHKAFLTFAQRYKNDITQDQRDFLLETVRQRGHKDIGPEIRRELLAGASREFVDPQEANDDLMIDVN

Protein sequences, listed by entry. Tags and fused reporters are not part of them.
UniProt P40160: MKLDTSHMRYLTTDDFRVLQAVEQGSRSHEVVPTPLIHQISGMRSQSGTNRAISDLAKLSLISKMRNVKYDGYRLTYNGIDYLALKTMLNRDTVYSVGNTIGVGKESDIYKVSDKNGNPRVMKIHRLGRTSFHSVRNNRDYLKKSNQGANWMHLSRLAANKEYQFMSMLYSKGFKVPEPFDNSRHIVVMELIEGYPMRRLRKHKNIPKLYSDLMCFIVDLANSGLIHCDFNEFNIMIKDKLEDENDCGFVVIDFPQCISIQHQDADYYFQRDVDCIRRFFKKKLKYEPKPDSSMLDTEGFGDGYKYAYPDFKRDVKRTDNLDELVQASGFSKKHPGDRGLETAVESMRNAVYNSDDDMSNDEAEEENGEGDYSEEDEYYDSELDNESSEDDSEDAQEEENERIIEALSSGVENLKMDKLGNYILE

For experiment [2], the target named is T1, Enp1 in fusion with the tandem affinity purification tag (Enp1-TAP) (S. cerevisiae). The source holds these as a separate data set.
Experiment [3] has as its target T2, Pno1 (S. cerevisiae (endogenous)) (UniProt Q99216).
T2 sequence: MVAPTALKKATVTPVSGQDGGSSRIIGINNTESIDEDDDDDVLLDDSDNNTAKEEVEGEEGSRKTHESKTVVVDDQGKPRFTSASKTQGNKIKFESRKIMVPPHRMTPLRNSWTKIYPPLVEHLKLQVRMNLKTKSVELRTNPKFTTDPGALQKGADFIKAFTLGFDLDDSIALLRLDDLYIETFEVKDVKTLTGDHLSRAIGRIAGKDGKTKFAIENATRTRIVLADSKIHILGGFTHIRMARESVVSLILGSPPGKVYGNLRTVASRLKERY

Data on three molecules can be found in PMC10062582.

Where two headings read alike, the source gives them in different places. Results are given in words; binding and its absence hold for the method and conditions named. Some binding calls cover weakened binding; strength is not graded here. For part of these data: Tags and fused reporters may be left off the sequences shown.

Consider Rio2 (from UniProt P40160 1-425), for which, in experiment [1], the binding entry is reported as “binds”.

B1: Tsr1 (protein, UniProt Q07381 1-788)
chain: MAGHSHRSSLKNGHKSYKSKHASKGALKRLYKGKVEKEPVGTGKPDKQVSKLQRKNKAKQLRAQRILDSIENRKLFEGKNGAAKIITIVPLVNDLDPLDILYKLLKCADDEGIMVQEVDSKRIFNVHIKKFKSNLKIIIPDMTNFLNILDCAKVADFVVFGLSGVQEVDEEFGEQIIRALELQGIASYIGVISNLSAVHEKEKFQLDVKQSLESYFKHFFPSEERVYNLEKNSDALNVLRTLCQRLPRSINWRDNRGYVVADFVDFVETSPDSGDLVIEGTVRGIGFNANRLVHIPDFGDFQLNKIEKISESSQKRKIIKEKATDSLSLELDLQTVFESNMNRDTLDEYAPEGTEDWSDYDEDFEYDGLTTARYDDHGFLPGREQTSKKAAVPKGTSDYQAKWYLDDVIDANEEEEAEQTNGKDETMMEIDDEMMVEQDNEEVAGDEEYDIEDNEGFEELSPEEEERQLREFRDMEKEDREFPDEIELEPSESAIERLKRYRGLKNLYNCDWQVDEKDPSSPAEWKRLLRIGNYKNTKNRIIKETKNEAQAIAGDRIRMFIRFPKFLLEKIQDPKQLLFAVYGLLLHEHKNAVVNFSLQRWEQYDKPVPSQEPIVVQYGVRRYTIQPLFSQGSNSPNNVHKYERFLHPDTVSVATCIAPVDFTQSPAIFFKPSPTDAKNIELIGHGTFLNADHSRILAKRAILTGHPFRFHKTVVTVRYMFFRPEDVEWFKSIPLFTKSGRSGFIKESLGTHGYFKATFDGKLSAQDVVAMSLYKRMWPMPSLPWNGM
Turning to B1, the binding entry in experiment [2] is reported as “binds”.

B2: yeast endonuclease Nob1 (enzyme, UniProt Q08444 1-459)
chain: MTENQTAHVRALILDATPLITQSYTHYQNYAQSFYTTPTVFQEIKDAQARKNLEIWQSLGTLKLVHPSENSIAKVSTFAKLTGDYSVLSANDLHILALTYELEIKLNNGDWRLRKKPGDALDASKADVGTDGKQKLTEDNKKEEDSESVPKKKNKRRGGKKQKAKREAREAREAENANLELESKAEEHVEEAGSKEQICNDENIKESSDLNEVFEDADDDGDWITPENLTEAIIKDSGEDTTGSLGVEASEEDRHVALNRPENQVALATGDFAVQNVALQMNLNLMNFMSGLKIKRIRNYMLRCHACFKIFPLPKDGKPKHFCASCGGQGTLLRCAVSVDSRTGNVTPHLKSNFQWNNRGNRYSVASPLSKNSQKRYGKKGHVHSKPQENVILREDQKEYEKVIKQEEWTRRHNEKILNNWIGGGSADNYISPFAITGLKQHNVRIGKGRYVNSSKRRS
As to B2, the binding result in experiment [3] is given as “binds”.
